Test results reported in PubChem BioAssay AID2685 (National Center for Advancing Translational Sciences (NCATS), 2010).
Some of the results follow.

Assay: qHTS Assay for Lipid Storage Modulators in Drosophila S3 Cells;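 also: cells counted by Cell Tracker Red CMTPX staining in the red channel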
Details: BODIPY lipid droplet fluorescence, 18-24 h, measured here: cell count max response, cells fed with added oleic acid

Structure (SMILES) | cell number change
Cc1ccc(NP(=O)(Oc2ccccc2F)Oc2ccccc2F)nc1 | 9.29%
COc1ccccc1OP(C)(=O)Nc1ccc(C)c(C)c1 (stereo not drawn) | 0.279%
COc1ccc(OP(C)(=O)Nc2ccccc2Br)cc1 (stereo not drawn) | -9.08%
O=C(O)c1ccccc1[As](=O)(O)O | 0%
O=P(Nc1nc2ccc(Cl)cc2s1)(c1ccccc1)c1ccccc1 | 2.13%
CCN(N=Nc1nonc1N)c1nonc1N | 18%
Nc1cccc2ccc([As](=O)(O)O)cc12 | -9.05%
CP(=O)(OCCOc1ccccc1)OCCOc1ccccc1 | 0%
Cc1nc2ccc3ccccc3c2o1.O=[N+]([O-])c1cc([N+](=O)[O-])c(O)c([N+](=O)[O-])c1 | 5.73%
O=[N+]([O-])c1cc([N+](=O)[O-])c(CCN2CCOCC2)c([N+](=O)[O-])c1 | 19.4%
O=C(Nc1cc([As](=O)(O)O)ccc1O)c1ccccc1 | 6.03%
CC(=O)N1C2C3N(C(C)=O)C1C1N(C(C)=O)C(C(N1C(C)=O)N3C(C)=O)N2C(C)=O | -19.3%
O=C(OCCCN1CCCC1)C(O)(c1ccccc1)C1CCCCC1 (stereo not drawn) | 6.19%
O=[N+]([O-])c1cc([N+](=O)[O-])c(CCNc2ccccc2)c([N+](=O)[O-])c1 | 20.2%
COc1ccc(C2=NCC(CBr)S2)cc1 (stereo not drawn) | 6.92%
CC(C)=N/N=C(\N)N[N+](=O)[O-] | 11.9%
CC1CCN(C(=O)Oc2c(Cl)cc(Cl)c3cccnc23)CC1 | -3.64%
COc1ccccc1OP(C)(=O)Nc1ccccc1Br (stereo not drawn) | 6.74%
CP(=O)(Nc1ccc(Cl)cc1)Oc1ccc(F)cc1 (stereo not drawn) | 3.46%
COP1(=S)c2c(C)nn(CCC#N)c2N=C(c2ccc(F)cc2)N1C (stereo not drawn) | 0%
CP(=O)(Nc1ccccn1)Oc1ccc(Cl)cc1 (stereo not drawn) | -7.09%
CCOC(=O)c1ccc(NP(C)(=O)Oc2ccc(OC)cc2)cc1 (stereo not drawn) | 6.73%
CCOP(C)(=S)SCC(=O)NC(C)C(=O)O (stereo not drawn) | 7.18%

Structure (SMILES) | cell number change
Cc1cc(SC(NC(=O)c2ccccc2)C(Cl)(Cl)Cl)nc(C(C)C)n1 (stereo not drawn) | -4.11%
CCOC(=O)Nc1ccc([As](=O)(O)O)c(O)c1 | 10%
CP(=O)(Nc1ccccc1Br)Oc1ccccc1 (stereo not drawn) | 8.69%
O=[N+]([O-])c1ccc(Nc2ccc(Oc3ccc([N+](=O)[O-])cc3[N+](=O)[O-])cc2)c([N+](=O)[O-])c1 | 4.47%
Cc1cc(SC(NC=O)C(Cl)(Cl)Cl)ncn1 (stereo not drawn) | 0%
COc1ccccc1OP(C)(=O)Nc1ccccc1 (stereo not drawn) | -11.9%
O=[N+]([O-])c1ccc2c(c1)C=Nc1ccccc1O2 | -7.02%
C[As](=O)(O)c1cccc(C(=O)O)c1 | -2.76%
O=[As](O)(c1ccc(O)cc1)c1ccccc1O | 4.07%
O=[N+]([O-])c1cc([N+](=O)[O-])c(Nc2cccnc2)c([N+](=O)[O-])c1 | 8.45%
CCN(CC)C(=S)SC(NC=O)C(Cl)(Cl)Cl (stereo not drawn) | -6.9%
COc1ccccc1OP(C)(=O)Nc1cc(Cl)ccc1C (stereo not drawn) | 16.3%
Cc1ccc(NP(C)(=O)Oc2ccccc2)c(C)c1 (stereo not drawn) | 8.19%
CC(C)c1ccc(OP(=O)(Nc2ccccn2)Oc2ccccc2F)cc1 (stereo not drawn) | 9.18%
CCOC(=O)c1ccc(NP(C)(=O)Oc2ccccc2)cc1 (stereo not drawn) | 0%
ClCCSc1nnc(-c2cccnc2)o1 | -26.1%
COc1cc(I)ccc1[As](=O)(O)O | 16.4%
Cc1cc(=O)[nH]c(N[N+](=O)[O-])n1 | 5.17%
Cc1c2c(nc3ccccc13)SC(C(Cl)Cl)C2 (stereo not drawn) | -2.23%
COc1ccc(N/C(=N/P(=O)(N2CCOCC2)N2CCOCC2)N2CCOCC2)cc1 | 9.94%
CCOC(=O)c1ccc(NP(C)(=O)Oc2cc(C)cc(C)c2)cc1 (stereo not drawn) | 0.986%
O=[As](O)(c1cccc(O)c1)c1cccc(O)c1 | -5.29%
O=[As](O)(O)c1cccnc1 | -3.57%

Structure (SMILES) | cell number change
COc1ccccc1OP(C)(=O)Nc1cccc(Br)c1 (stereo not drawn) | 5.78%
O=C(OC1CN2CCC1CC2)c1ccc(Cl)cc1 (stereo not drawn) | 17.9%
CCOP(=O)(Nc1cccc2ccccc12)OCC | 0%
CCCOP(=S)(Nc1nc(N)cc(=O)[nH]1)OCCC | 13%
Nc1cccc2c([As](=O)(O)O)cccc12 | -11.5%
O=C(O)COc1ccc([As](=O)(O)O)cc1[N+](=O)[O-] | 21.2%
Nc1ccccc1[As](=O)(O)c1ccccc1 | -2.69%
O=P(Nc1nccs1)(c1ccccc1)c1nc2ccccc2s1 (stereo not drawn) | 13.5%
O=P(Nc1nccs1)(Oc1ccccc1)Oc1ccccc1 | 1.5%
CCOP1(=S)c2c(C)nn(CCC#N)c2N=C(c2ccc(F)cc2)N1C (stereo not drawn) | -10.2%
CN(C(=O)Cc1ccccc1)[C@@H]1CC[C@]2(CCCO2)C[C@H]1N1CCCC1 | -4.47%
NC(=O)Nc1ccc([As](=O)(O)O)cc1 | 2.64%
O=[N+]([O-])c1cc([N+](=O)[O-])c(Nc2nnnn2CCO)c([N+](=O)[O-])c1 | 1.15%
CC1=C2N=C(C=C3N=C(C(C)=C4[N-][C@@](C)([C@@H]5N=C1[C@](C)(CCC(=O)NC[C@@H](C)OP(=O)([O-])O[C@H]1[C@@H](O)[C@@H](n6cnc7cc(C)c(C)cc76)O[C@@H]1CO)[C@H]5CC(N)=O)[C@@](C)(CC(N)=O)[C@@H]4CCC(N)=O)[C@@](C)(CC(N)=O)[C@@H]3CCC(N)=O)C(C)(C)[C@@H]2CCC(N)=O.[C-]#N.[Co+3] | 7.77%
CN(C)C1(CNC(=O)c2ccc(S(C)(=O)=O)cc2)CCCCC1 | 7.29%
Cc1ccc(C(=O)OC2CN3CCC2CC3)cc1 (stereo not drawn) | -4.15%
Nc1cccc([As](=O)(O)c2ccccc2)c1 | 6.81%
O=P1(Nc2ncccn2)COc2ccccc2OC1 | 7.76%
COc1ccccc1OP(C)(=O)Nc1c(C)cccc1C (stereo not drawn) | 3.11%
Clc1n[nH]nc1-c1nn[nH][15n]1 | 2.63%
CCOP(=O)(Nc1ccc(C)cn1)OCC | -3.99%
CN(C(=O)Cc1ccc(Cl)c(Cl)c1)[C@@H]1CCCC[C@H]1N1CCCC1 | -3.78%
